From US20260193363A1
Changes are numbered by the printed parent chain. Results are given in words; binding and its absence hold for the method and conditions named. Binding can be weak; no strength is given.

What was measured:
[1] = biological target: EGFRvIII extracellular domain, His-tagged (human); assay: ELISA, hybridoma supernatant on His-tagged ECD on nickel-coated 96-well plate, OD450
[2] = biological target: EGFRvIII extracellular domain, His-tagged (human); assay: ELISA, purified antibody at 5 ng/ml on His-tagged ECD, OD450
[3] = biological target: EGFRvIII extracellular domain, His-tagged (human); assay: ELISA with purified antibody at 5 ng/ml

Measured: binding

B1: monoclonal antibody 3D10 (antibody, V domains shown)
VH: QVQLKQSGPGLVQPSQSLSIICTVSGFSLTRNGVHWVRQSPGKGLEWVGVIWRSGRTDYDAAFMSRLSITKDNSKSQVFFKMNSLQADDTAIYYCVKNGDDGNYGTYWGQGTLVTVSA
VL: DIVMSQSPSSLGVSVGEKVTMSCKSSQSLLDSRNQKNYLAWYQQKPGQSPKLLIYWASTRESGVPDRFTGSGSGTEFTLTISSVKAEDLAIYYCQQYYNYPYTFGGGTKLEIT
binds: all assays above

B2: monoclonal antibody 9G11 (antibody, V domains shown)
VH: B1 VH with I21T, S54G
VL: B1 VL
binds: all assays above

B3: monoclonal antibody 1D9 (antibody, V domains shown)
VH: QVQLKQSGRSLVQPSQSLSITCTVSGFSLTDYGVHWIRQSPGKGLEWLGVIWRSGRTDYNAVFMSRLSITKDNSKSQVFFKMNGLQTDDTAIYYCAKNGPFGNFAGYWGQGTPVAVSA
VL: DIVMSQSPSSLAVSVGEKVTMRCRSSQSLLDSYHQKNYLAWYLQKPGQSPKLLIYWASTRESGVPDRFTGSGSGTDFTLTISSVKAEDLAVYYCQEYYRYPYTFGGGTKLEIK
binds: all assays above

B4: monoclonal antibody 4A4 (antibody, V domains shown)
VH: B3 VH with Q86L, T87I, D88E
VL: B3 VL with V91A
binds: all assays above

B5: monoclonal antibody 11E11 (antibody, V domains shown)
VH: B3 VH with R9P, D31N, I51K, S54G, V62A, K71R, K75R, G84S, P113L, A115T
VL: DIVMSQSPSSLAVSVGEKVSLTCKSSQSLLDNQKHYLAWYQQKPGQSPKLLIYWASTRESGVPDRFTGSGSGTEFTLTISSVKAEDLAVYYCQQFYNYPYTFGGGTKLEIK
binds: all assays above
